PubChem BioAssay AID1224830 – NIAID – 2016

Screen: 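Host factors that control LPS-induced TNF expression in human macrophages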 (primary screen)
Cell system: human THP-1 monocytic leukaemia cells, TNF dual-luciferase reporter clone, PMA-differentiated to macrophage-like cells
Reagents: siRNA pool against human genes, 50 nM
Duration: LPS for 4 h, given about 3 days after siRNA transfection
Treatment: bacterial LPS (TLR4 ligand), 10 ng/ml
Read-out: 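TNF firefly reporter luminescence divided by renilla, normalised to the plate median, then turned into a robust z-score for each replicate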
Reading the numbers: TNF reporter robust z-score: higher = stronger TNF reporter response to LPS
Call rule: 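Each well counts as active if its z-score is over 2.8 or under -1.5; controls are left without a call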
The whole screen tested about 18,000 reagents; below is an unselected part. In the full data, about 2,900 (16%) were called active. 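Calls are made per well; low scores hint the gene aids the LPS response, high scores that it dampens it.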 A number with no mark means an inactive call. Repeated entries: four replicate wells of each siRNA pool.

no.	target	PubChem SID	TNF reporter robust z-score
1	ATP6V1G1 (GeneID 9550)	SID315453375	-0.49
2	ATP6V1G1 (GeneID 9550)	SID315453375	0.45
3	ATP6V1G1 (GeneID 9550)	SID315453375	0.04
4	ATP6V1G1 (GeneID 9550)	SID315453375	-0.58
5	DEGS2 (GeneID 123099)	SID315461573	0.02
6	DEGS2 (GeneID 123099)	SID315461573	0.16
7	DEGS2 (GeneID 123099)	SID315461573	-0.06
8	DEGS2 (GeneID 123099)	SID315461573	0.1
9	MIEF2 (GeneID 125170)	SID315461657	1.08
10	MIEF2 (GeneID 125170)	SID315461657	1.21
11	MIEF2 (GeneID 125170)	SID315461657	-0.16
12	MIEF2 (GeneID 125170)	SID315461657	0.44
13	RAB19 (GeneID 401409)	SID315464785	-0.96
14	RAB19 (GeneID 401409)	SID315464785	-0.64
15	RAB19 (GeneID 401409)	SID315464785	-0.41
16	RAB19 (GeneID 401409)	SID315464785	0.15
17	PLAAT2 (GeneID 54979)	SID315457318	0.37
18	PLAAT2 (GeneID 54979)	SID315457318	1.94
19	PLAAT2 (GeneID 54979)	SID315457318	1.41
20	PLAAT2 (GeneID 54979)	SID315457318	1.65
21	PUM1 (GeneID 9698)	SID315453491	2.05
22	PUM1 (GeneID 9698)	SID315453491	1.76
23	PUM1 (GeneID 9698)	SID315453491	0.71
24	PUM1 (GeneID 9698)	SID315453491	0.37
25	ARPC4 (GeneID 10093)	SID315453811	-0.52
26	ARPC4 (GeneID 10093)	SID315453811	0.35
27	ARPC4 (GeneID 10093)	SID315453811	0.99
28	ARPC4 (GeneID 10093)	SID315453811	0.89
29	EMC1 (GeneID 23065)	SID315454965	0.1
30	EMC1 (GeneID 23065)	SID315454965	0.15
31	EMC1 (GeneID 23065)	SID315454965	-0.32
32	EMC1 (GeneID 23065)	SID315454965	0.64
33	DNASE1 (GeneID 1773)	SID315448339	5.5 (active)
34	DNASE1 (GeneID 1773)	SID315448339	1.68
35	DNASE1 (GeneID 1773)	SID315448339	0.7
36	DNASE1 (GeneID 1773)	SID315448339	7.7 (active)
37	TEX14 (GeneID 56155)	SID315458030	-1.03
38	TEX14 (GeneID 56155)	SID315458030	-0.25
39	TEX14 (GeneID 56155)	SID315458030	-0.46
40	TEX14 (GeneID 56155)	SID315458030	-0.41
41	STARD5 (GeneID 80765)	SID315459805	1.93
42	STARD5 (GeneID 80765)	SID315459805	6.08 (active)
43	STARD5 (GeneID 80765)	SID315459805	0.57
44	STARD5 (GeneID 80765)	SID315459805	0.97
45	ITGA9 (GeneID 3680)	SID315449549	-0.15
46	ITGA9 (GeneID 3680)	SID315449549	0.77
47	ITGA9 (GeneID 3680)	SID315449549	-1.18
48	ITGA9 (GeneID 3680)	SID315449549	0.32
49	MTOR (GeneID 2475)	SID315448758	-0.85
50	MTOR (GeneID 2475)	SID315448758	0.13
51	MTOR (GeneID 2475)	SID315448758	1.05
52	MTOR (GeneID 2475)	SID315448758	0.88
53	ZNF79 (GeneID 7633)	SID315452229	1.82
54	ZNF79 (GeneID 7633)	SID315452229	0.11
55	ZNF79 (GeneID 7633)	SID315452229	0.16
56	ZNF79 (GeneID 7633)	SID315452229	0.33
57	IMPACT (GeneID 55364)	SID315457630	-0.92
58	IMPACT (GeneID 55364)	SID315457630	0.24
59	IMPACT (GeneID 55364)	SID315457630	-0.63
60	IMPACT (GeneID 55364)	SID315457630	-0.86
61	GPR149 (GeneID 344758)	SID315464177	1.99
62	GPR149 (GeneID 344758)	SID315464177	-0.46
63	GPR149 (GeneID 344758)	SID315464177	-0.59
64	GPR149 (GeneID 344758)	SID315464177	0.1
65	EPM2AIP1 (GeneID 9852)	SID315453618	1.63
66	EPM2AIP1 (GeneID 9852)	SID315453618	-0.76
67	EPM2AIP1 (GeneID 9852)	SID315453618	-1.51 (active)
68	EPM2AIP1 (GeneID 9852)	SID315453618	-1.26
69	FAM117B (GeneID 150864)	SID315462471	0.57
70	FAM117B (GeneID 150864)	SID315462471	-0.01
71	FAM117B (GeneID 150864)	SID315462471	-1.41
72	FAM117B (GeneID 150864)	SID315462471	-0.17
73	SLC19A3 (GeneID 80704)	SID315459777	2.17
74	SLC19A3 (GeneID 80704)	SID315459777	2.23
75	SLC19A3 (GeneID 80704)	SID315459777	1.65
76	SLC19A3 (GeneID 80704)	SID315459777	2.36
77	KRT24 (GeneID 192666)	SID315462944	-0.37
78	KRT24 (GeneID 192666)	SID315462944	0.44
79	KRT24 (GeneID 192666)	SID315462944	-0.6
80	KRT24 (GeneID 192666)	SID315462944	-0.4
81	OR4C45 (GeneID 403257)	SID315464825	2.02
82	OR4C45 (GeneID 403257)	SID315464825	3.57 (active)
83	OR4C45 (GeneID 403257)	SID315464825	0.12
84	OR4C45 (GeneID 403257)	SID315464825	-0.1
85	BTC (GeneID 685)	SID315447592	1.3
86	BTC (GeneID 685)	SID315447592	3.57 (active)
87	BTC (GeneID 685)	SID315447592	-0.18
88	BTC (GeneID 685)	SID315447592	0.2
89	PLA2G4D (GeneID 283748)	SID315463702	-1.37
90	PLA2G4D (GeneID 283748)	SID315463702	-0.97
91	PLA2G4D (GeneID 283748)	SID315463702	-1.08
92	PLA2G4D (GeneID 283748)	SID315463702	-0.63
93	ARPC1B (GeneID 10095)	SID315453813	-1.05
94	ARPC1B (GeneID 10095)	SID315453813	-1.1
95	ARPC1B (GeneID 10095)	SID315453813	-1.59 (active)
96	ARPC1B (GeneID 10095)	SID315453813	-0.9
97	SLC5A7 (GeneID 60482)	SID315458707	-0.51
98	SLC5A7 (GeneID 60482)	SID315458707	0.89
99	SLC5A7 (GeneID 60482)	SID315458707	-0.26
100	SLC5A7 (GeneID 60482)	SID315458707	0.79
101	TMSB4XP8 (GeneID 7117)	SID315451915	-1.73 (active)
102	TMSB4XP8 (GeneID 7117)	SID315451915	-1.81 (active)
103	TMSB4XP8 (GeneID 7117)	SID315451915	-1.77 (active)
104	TMSB4XP8 (GeneID 7117)	SID315451915	-1.35
105	WNT1 (GeneID 7471)	SID315452141	3.2 (active)
106	WNT1 (GeneID 7471)	SID315452141	1.09
107	WNT1 (GeneID 7471)	SID315452141	-0.04
108	WNT1 (GeneID 7471)	SID315452141	0.37
109	ID3 (GeneID 3399)	SID315449388	1.52
110	ID3 (GeneID 3399)	SID315449388	2.8 (active)
111	ID3 (GeneID 3399)	SID315449388	2.6
112	ID3 (GeneID 3399)	SID315449388	2.36

Already shown: entries from further up.
no.	target	PubChem SID	TNF reporter robust z-score
12	MIEF2 (GeneID 125170)	SID315461657	0.44
13	RAB19 (GeneID 401409)	SID315464785	-0.96
14	RAB19 (GeneID 401409)	SID315464785	-0.64
15	RAB19 (GeneID 401409)	SID315464785	-0.41
16	RAB19 (GeneID 401409)	SID315464785	0.15
17	PLAAT2 (GeneID 54979)	SID315457318	0.37
18	PLAAT2 (GeneID 54979)	SID315457318	1.94
19	PLAAT2 (GeneID 54979)	SID315457318	1.41
20	PLAAT2 (GeneID 54979)	SID315457318	1.65
21	PUM1 (GeneID 9698)	SID315453491	2.05
22	PUM1 (GeneID 9698)	SID315453491	1.76
